Literature values as cited in patent publication US20240335440A1, “COMBINATION THERAPY COMPRISING A PKC INHIBITOR AND A C-MET INHIBITOR” (IDEAYA BIOSCIENCES, INC., priority 2021, published 2024).
At least one compound was matched to its structure with a doubt left.

Test system: metastatic uveal melanoma (MUM)
Settings: First-Line MUM (n = 31)

For COc1cc2nccc(Oc3ccc(NC(=O)C4(C(=O)Nc5ccc(F)cc5)CC4)cc3)c2cc1OC [Cabozantinib], the “Overall response rate by RECIST 1.1” value is listed as 0%, the “Progression free survival (mPFS)” value is listed as 2 mo and the “% Pts with tumor shrinkage” value (estimated from waterfall plot) is listed as 23%^^.
